Assay results: patent US20200040069A1
Results are given in words; binding and its absence hold for the method and conditions named. Some binding calls cover weakened binding; strength is not graded here.

Molecular target: T1, pro-EMAPII protein (recombinant pro-EMAP II, Examples 1 and 10) (Mus musculus (Mouse)) (UniProt P31230)
T1 sequence: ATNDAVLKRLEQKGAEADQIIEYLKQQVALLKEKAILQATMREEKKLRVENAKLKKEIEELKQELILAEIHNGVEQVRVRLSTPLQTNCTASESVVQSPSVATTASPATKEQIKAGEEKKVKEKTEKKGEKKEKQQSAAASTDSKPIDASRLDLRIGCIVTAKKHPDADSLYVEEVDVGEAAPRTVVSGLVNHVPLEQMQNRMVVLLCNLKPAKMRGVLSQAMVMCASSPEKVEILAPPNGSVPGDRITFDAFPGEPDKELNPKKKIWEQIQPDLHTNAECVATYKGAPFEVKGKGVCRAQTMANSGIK
Test: ELISA of hybridoma supernatants

binding: binds
B1: rat antibody hybridoma clone M7/1 (EMAP II neutralizing M7/1 antibody) (antibody, V domains shown)
VH: AVHLVESGGGFVQPTESLKISCAASGFTFSDAAMYWVRQAPGKGLEWVARIRTKPNNYATYYADSVKGRFTISRDDSKSMVYLQMDNLKTEDTAMYYCTSWSYDFDYWGQGVMVTVSS
VL: DIVMTQGALPNPVPSGESASITCQSSKSLLHSSGKTYLNWYLQRPGQSPHLLIYWMSTRASGVSDRLSGSGSGTDFTLKISSVEAEDVGVYYCQQFLEYPLTFGSGTKLEIK
